Data on 25 targets can be found in the supplement of paper PMC10849652.

Sequences of proteins named here, by UniProt entry; tags and fusion partners are left off. A change or cut given only in a name is not applied to a line headed by its entry.
UniProt Q9H079: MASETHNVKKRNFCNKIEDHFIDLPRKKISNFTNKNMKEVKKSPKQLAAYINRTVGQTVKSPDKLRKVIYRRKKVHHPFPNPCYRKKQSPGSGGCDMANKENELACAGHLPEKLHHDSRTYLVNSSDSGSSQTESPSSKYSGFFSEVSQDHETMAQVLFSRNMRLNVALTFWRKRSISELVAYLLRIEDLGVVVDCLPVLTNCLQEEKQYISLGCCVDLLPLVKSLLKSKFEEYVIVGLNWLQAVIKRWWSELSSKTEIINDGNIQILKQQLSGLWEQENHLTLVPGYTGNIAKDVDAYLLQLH
UniProt Q9BW19: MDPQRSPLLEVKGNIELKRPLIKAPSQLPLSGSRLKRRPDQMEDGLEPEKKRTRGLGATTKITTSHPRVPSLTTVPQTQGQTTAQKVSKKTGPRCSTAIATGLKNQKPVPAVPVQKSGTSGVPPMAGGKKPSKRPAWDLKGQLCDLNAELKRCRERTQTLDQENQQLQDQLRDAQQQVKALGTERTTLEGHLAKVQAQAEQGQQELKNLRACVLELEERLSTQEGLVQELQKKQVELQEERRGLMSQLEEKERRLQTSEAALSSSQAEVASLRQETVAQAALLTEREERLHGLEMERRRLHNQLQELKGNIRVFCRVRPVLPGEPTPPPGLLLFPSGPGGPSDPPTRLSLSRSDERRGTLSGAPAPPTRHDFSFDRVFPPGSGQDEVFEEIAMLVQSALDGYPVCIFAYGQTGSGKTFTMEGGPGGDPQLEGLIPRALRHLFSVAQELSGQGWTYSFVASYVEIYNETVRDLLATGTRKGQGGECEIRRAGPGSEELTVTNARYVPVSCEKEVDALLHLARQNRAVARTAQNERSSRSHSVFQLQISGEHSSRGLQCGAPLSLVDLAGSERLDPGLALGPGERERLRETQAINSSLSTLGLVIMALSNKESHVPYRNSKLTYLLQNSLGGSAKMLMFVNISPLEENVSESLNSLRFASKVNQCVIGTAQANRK
UniProt Q96Q89: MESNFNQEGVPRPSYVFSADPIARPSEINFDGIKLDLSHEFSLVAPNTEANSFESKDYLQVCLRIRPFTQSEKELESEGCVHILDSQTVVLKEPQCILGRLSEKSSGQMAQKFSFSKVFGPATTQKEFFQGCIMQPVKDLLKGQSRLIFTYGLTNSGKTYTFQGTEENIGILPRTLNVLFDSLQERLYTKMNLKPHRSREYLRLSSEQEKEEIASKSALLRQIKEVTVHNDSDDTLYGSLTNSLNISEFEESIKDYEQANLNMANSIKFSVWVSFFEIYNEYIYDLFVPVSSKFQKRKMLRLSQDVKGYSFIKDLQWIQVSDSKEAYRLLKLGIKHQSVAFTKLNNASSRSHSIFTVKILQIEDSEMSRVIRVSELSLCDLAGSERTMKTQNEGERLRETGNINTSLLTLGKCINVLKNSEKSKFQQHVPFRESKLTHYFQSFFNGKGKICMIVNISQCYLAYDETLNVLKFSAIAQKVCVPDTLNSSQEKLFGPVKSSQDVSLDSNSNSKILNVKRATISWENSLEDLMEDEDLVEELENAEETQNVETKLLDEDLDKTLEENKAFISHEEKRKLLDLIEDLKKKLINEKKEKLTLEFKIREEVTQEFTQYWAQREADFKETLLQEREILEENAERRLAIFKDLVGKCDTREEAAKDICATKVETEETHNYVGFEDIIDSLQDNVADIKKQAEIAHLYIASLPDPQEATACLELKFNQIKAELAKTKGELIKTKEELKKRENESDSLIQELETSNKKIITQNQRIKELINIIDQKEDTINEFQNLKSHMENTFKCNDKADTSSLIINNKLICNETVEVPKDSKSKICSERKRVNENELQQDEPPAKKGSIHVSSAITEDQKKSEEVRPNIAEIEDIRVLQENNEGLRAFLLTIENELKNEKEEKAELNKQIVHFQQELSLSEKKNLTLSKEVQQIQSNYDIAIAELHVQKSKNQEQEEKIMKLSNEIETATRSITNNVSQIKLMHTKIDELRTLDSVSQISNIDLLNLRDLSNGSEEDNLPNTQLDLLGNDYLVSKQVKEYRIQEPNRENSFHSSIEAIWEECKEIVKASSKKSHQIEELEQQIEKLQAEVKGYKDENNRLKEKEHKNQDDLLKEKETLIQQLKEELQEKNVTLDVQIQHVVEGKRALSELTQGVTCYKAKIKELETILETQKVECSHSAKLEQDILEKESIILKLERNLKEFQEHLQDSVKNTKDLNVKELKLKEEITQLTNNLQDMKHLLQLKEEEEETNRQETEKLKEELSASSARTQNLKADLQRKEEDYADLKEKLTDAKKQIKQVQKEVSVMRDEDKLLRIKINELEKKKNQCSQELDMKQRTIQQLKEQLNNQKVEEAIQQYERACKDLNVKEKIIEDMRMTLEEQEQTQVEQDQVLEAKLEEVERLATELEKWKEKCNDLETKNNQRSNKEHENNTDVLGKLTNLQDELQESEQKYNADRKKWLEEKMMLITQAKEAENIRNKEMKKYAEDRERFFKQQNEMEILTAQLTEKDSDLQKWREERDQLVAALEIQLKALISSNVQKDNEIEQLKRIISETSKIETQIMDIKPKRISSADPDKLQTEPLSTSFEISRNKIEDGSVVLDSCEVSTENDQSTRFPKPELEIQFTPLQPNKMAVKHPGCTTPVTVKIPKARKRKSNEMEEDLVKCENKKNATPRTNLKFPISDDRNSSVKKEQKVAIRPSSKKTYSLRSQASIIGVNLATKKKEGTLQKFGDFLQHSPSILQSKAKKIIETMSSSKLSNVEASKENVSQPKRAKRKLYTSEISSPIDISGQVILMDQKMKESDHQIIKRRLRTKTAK
UniProt Q9Y2M5: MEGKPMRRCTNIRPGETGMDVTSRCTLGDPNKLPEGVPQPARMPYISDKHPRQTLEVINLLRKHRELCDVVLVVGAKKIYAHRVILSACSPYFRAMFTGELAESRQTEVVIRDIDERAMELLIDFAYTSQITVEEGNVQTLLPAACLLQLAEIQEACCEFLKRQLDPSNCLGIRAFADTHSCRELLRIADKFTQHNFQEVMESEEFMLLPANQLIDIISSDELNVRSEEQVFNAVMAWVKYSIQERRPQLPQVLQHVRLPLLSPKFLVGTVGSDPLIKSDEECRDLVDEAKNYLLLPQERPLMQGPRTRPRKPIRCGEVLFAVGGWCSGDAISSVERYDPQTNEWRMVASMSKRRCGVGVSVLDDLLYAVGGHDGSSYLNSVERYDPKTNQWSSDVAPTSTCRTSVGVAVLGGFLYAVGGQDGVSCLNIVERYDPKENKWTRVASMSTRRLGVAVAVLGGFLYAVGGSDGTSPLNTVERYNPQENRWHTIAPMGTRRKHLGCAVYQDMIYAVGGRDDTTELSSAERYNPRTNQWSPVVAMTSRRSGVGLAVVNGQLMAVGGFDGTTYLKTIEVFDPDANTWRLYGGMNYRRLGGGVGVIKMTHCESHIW
UniProt Q96S16: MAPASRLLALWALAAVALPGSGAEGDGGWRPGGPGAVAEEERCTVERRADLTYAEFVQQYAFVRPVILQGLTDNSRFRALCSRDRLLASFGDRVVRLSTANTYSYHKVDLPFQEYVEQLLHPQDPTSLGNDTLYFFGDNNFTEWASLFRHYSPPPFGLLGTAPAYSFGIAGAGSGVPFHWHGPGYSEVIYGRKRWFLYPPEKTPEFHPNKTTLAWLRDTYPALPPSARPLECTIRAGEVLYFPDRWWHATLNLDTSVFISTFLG
UniProt Q6PID8: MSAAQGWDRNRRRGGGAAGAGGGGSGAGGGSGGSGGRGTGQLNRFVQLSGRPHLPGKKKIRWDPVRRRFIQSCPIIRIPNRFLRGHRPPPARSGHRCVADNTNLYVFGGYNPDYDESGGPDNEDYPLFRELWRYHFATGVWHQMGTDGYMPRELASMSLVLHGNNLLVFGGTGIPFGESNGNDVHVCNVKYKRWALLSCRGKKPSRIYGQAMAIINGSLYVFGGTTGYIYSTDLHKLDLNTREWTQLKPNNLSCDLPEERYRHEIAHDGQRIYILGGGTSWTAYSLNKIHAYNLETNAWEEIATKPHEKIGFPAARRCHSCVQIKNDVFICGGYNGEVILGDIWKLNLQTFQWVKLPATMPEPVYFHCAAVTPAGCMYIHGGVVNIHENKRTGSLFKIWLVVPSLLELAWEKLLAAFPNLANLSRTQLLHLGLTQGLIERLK
UniProt Q8N4N3: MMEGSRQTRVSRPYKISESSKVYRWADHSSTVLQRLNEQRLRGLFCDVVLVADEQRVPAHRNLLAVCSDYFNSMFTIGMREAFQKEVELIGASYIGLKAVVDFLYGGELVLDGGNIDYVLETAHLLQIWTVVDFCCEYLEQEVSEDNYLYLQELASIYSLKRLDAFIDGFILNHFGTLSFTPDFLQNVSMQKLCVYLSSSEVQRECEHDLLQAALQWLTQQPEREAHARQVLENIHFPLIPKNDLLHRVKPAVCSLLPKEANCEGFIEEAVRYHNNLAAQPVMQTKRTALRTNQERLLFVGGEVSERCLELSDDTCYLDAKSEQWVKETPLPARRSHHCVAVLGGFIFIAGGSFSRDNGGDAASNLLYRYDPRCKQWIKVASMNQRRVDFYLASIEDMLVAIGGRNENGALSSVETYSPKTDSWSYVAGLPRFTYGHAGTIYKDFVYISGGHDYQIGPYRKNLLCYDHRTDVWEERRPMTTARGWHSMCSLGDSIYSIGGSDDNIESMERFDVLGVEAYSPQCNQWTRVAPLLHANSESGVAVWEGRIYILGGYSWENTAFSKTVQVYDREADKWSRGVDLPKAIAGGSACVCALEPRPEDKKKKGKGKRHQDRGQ
UniProt O60333: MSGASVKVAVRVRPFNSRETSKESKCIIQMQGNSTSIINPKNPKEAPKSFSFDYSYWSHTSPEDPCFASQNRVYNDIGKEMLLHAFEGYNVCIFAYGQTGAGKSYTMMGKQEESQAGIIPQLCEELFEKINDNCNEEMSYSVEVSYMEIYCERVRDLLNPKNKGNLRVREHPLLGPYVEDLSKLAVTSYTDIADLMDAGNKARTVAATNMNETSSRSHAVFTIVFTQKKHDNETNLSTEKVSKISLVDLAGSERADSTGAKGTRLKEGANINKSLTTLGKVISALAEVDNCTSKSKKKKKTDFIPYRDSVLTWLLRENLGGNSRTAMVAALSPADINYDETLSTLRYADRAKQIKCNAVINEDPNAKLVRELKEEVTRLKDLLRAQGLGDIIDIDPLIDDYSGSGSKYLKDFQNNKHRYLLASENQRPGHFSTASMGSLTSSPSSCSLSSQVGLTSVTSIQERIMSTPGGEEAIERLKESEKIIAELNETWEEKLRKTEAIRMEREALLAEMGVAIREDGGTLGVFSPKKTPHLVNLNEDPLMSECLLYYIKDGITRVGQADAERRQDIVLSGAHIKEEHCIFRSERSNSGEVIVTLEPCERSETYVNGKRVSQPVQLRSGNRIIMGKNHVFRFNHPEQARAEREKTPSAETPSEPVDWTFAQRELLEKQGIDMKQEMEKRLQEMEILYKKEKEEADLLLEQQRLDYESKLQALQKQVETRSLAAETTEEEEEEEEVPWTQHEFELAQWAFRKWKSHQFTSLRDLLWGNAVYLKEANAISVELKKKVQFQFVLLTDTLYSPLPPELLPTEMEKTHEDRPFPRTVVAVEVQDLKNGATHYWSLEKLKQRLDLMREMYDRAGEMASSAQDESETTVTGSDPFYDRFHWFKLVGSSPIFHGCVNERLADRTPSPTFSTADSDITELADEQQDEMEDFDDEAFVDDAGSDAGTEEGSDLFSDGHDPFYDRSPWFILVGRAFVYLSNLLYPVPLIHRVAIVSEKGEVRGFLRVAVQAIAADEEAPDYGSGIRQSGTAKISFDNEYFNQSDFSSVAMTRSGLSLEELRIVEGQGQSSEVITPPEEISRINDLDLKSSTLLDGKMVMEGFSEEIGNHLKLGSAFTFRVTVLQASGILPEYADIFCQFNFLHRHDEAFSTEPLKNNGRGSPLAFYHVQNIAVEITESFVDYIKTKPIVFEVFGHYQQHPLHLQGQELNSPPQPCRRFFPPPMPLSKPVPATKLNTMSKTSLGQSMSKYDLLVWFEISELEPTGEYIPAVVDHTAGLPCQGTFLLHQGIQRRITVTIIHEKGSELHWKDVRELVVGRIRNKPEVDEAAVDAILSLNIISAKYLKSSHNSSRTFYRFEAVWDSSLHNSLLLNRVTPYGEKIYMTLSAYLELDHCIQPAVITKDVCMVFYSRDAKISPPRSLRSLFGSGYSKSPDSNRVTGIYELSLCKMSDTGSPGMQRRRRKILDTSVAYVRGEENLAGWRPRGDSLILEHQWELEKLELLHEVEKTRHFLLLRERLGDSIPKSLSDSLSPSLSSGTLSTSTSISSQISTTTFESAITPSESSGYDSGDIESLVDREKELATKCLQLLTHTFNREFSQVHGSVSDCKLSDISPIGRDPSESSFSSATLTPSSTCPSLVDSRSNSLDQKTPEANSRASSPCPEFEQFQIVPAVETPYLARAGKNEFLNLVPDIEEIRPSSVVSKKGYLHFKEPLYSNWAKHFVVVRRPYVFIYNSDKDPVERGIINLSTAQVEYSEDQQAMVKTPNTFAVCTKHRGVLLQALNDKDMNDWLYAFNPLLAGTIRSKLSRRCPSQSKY

The other results are listed elsewhere or left out.

Compound in one test: Cn1cc(-c2ccc3nnc(C(F)(F)c4ccc5ncccc5c4)n3n2)cn1
Nature of the test: log2 fold change, soluble protein after heating vs DMSO (PISA); higher = thermal stabilisation; K562 cells, 10 uM, 30 min; active = over 0.2 and 3.5 SD of the protein, either way, in both replicates (recomputed). In a few lines:
(§1)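 Aliquots of K562 cells (2×10^6 cells/mL) treated with 10 μM compound for 30 min were heated for 3 min over 48°C-58°C. After pooling and extraction in PBS with 0.5% NP-40 at 4°C, soluble protein from a 21,000xg, 90 min spin was quantified by TMTpro 16plex LC-MS/MS with channel sums equalised. Thermal stability is expressed against control samples, from duplicates, as a log2 fold change.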
In the case of KIZ (UniProt Q2M2Z5), the log2 fold change was inactive: 0.196.
Still for that read-out and setting: with KATNBL1 (UniProt Q9H079) the figure was inactive: -0.256.
As to KDF1 (UniProt Q8NAX2), the log2 fold change is inactive: -0.251.
KNL1 (UniProt Q8NG31): the log2 fold change is inactive: -0.015.
As for KIFC1 (UniProt Q9BW19), the log2 fold change was inactive: -0.247.
The same measure, in the same setting: with KDM6A (UniProt O15550) the figure was inactive: -0.002.
With KIF21B (UniProt O75037), the log2 fold change was inactive: -0.246.
Turning to KIF20B isoform 2 (UniProt Q96Q89), the log2 fold change is inactive: -0.133.
Still for that read-out and setting: with KLHL20 (UniProt Q9Y2M5) the figure was inactive: 0.022.
Consider JMJD8 (UniProt Q96S16), for which the log2 fold change was inactive: -0.195.
The same measure, in the same setting: with KIAA1755 (UniProt Q5JYT7) the figure was inactive: 0.039.
Consider KIF21A (UniProt H0YI78), for which the log2 fold change was inactive: 0.134.
In the case of KIF16B isoform 2 (UniProt Q96L93), the log2 fold change is inactive: -0.006.
Same read-out and setting: with KMT2A isoform 3 (UniProt Q03164) the figure was inactive: -0.034.

Compound in a further test: Cn1cncc1[C@@](N)(c1ccc(Cl)cc1)c1ccc2c(c1)c(-c1cccc(Cl)c1)cc(=O)n2C [tipifarnib]
The test is described as above. In outline:
as §1
In the case of KIF14 (UniProt Q15058), the log2 fold change was inactive: -0.028.
Still for that read-out and setting: with KIZ (UniProt Q2M2Z5) the figure was inactive: 0.217.
Still for that read-out and setting: as for KLHL42 (UniProt Q9P2K6), the figure is inactive: 0.069; as for KATNBL1 (UniProt Q9H079), inactive: 0.115.
Same read-out and setting: as for KCNH2 (UniProt Q12809), the figure is inactive: -0.226.
For the target KDM6A (UniProt O15550), the log2 fold change is inactive: 0.038.
The same measure, in the same setting: as for KLHDC10 (UniProt Q6PID8), the figure is inactive: 0.063; as for KLHL20 (UniProt Q9Y2M5), inactive: 0.041.
As for JMJD8 (UniProt Q96S16), the log2 fold change was inactive: 0.038.
As for KIAA1755 (UniProt Q5JYT7), the log2 fold change is inactive: -0.001.
As to ITSN1 (UniProt Q15811), the log2 fold change was inactive: 0.062.
Turning to KATNAL1 (UniProt Q9BW62), the log2 fold change was inactive: -0.133.
Take KLC3 isoform 3 (UniProt Q6P597): the log2 fold change is inactive: -0.168.

Compound in the next test: FC(F)(F)c1ccc(/C=C/c2nc(COc3ccc(CCCCn4ccnn4)cc3)co2)cc1 [mubritinib]
The description is as above. In a few lines:
as §1
KIF14 (UniProt Q15058): the log2 fold change was inactive: 0.009.
KATNBL1 (UniProt Q9H079): the log2 fold change was inactive: -0.032.
On the same count and under the same terms, with KRT10, A0A1B0GVI3 the figure was inactive: -0.097; with KLHL36 (UniProt Q8N4N3), inactive: 0.094; with KCNH2 (UniProt Q12809), inactive: -0.125.
On the same count and under the same terms, with KNL1 (UniProt Q8NG31) the figure was inactive: 0.202.
Consider KIFC1 (UniProt Q9BW19), for which the log2 fold change was inactive: 0.404.
In the case of KLHL20 (UniProt Q9Y2M5), the log2 fold change is inactive: 0.1.
In the case of JMJD8 (UniProt Q96S16), the log2 fold change is inactive: -0.136.
Take ITSN1 (UniProt Q15811): the log2 fold change is inactive: 0.103.
Same read-out and setting: with KIAA0040 (UniProt Q15053) the figure was inactive: -0.016.
Still for that read-out and setting: as for KIF1B isoform 3 (UniProt O60333), the figure is inactive: 0.168.
